Earlier results in US11739132B2, “Separation moieties and methods of use thereof” (Werewolf Therapeutics, Inc., priority 2019, dated 2023).
Some results were stated once for a whole list of compounds, not compound by compound. *: point of attachment. AMC = Cc1cc(=O)oc2cc(N*)ccc12; Cbz = O=C(OCc1ccccc1)*

Target: T1, Cathepsin K (CTSK) (Homo sapiens, UniProt P43235)
T1 sequence (P43235 115-329): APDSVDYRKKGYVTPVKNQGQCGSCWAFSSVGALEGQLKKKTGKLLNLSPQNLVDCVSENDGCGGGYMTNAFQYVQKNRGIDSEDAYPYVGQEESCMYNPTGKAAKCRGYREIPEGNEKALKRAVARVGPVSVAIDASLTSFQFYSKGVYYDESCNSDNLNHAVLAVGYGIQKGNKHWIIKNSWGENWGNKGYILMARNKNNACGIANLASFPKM
Conditions: cited from earlier work

Cbz-Phe-Arg-{AMC}
Specific activity for reference substrates: 15,000-25,000 pmol/min/μg

Z-LR-AMC
Specific activity for reference substrates: 15,000-25,000 pmol/min/μg
